Some of the results follow.
Tests used:
Test in all cases: log2 fold change, soluble protein after heating vs DMSO (PISA); higher = thermal stabilisation; K562 lysate, 10 uM; active = over 0.2 and 3.5 SD of the protein, either way, in both replicates (recomputed)
[1] = compound: NCC(=O)Nc1ccc(-n2nc(C(F)(F)F)cc2-c2ccc3c(ccc4ccccc43)c2)cc1
Procedure, shortened: (§1)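 Values give the log-two fold change in thermal stability against solvent controls, from duplicates. Crude K562 extract at 1 mg/mL protein, made by dounce homogenisation in PBS pH 7.4 with 1 mM MgCl2, was treated with 10 μM compound for 30 min. After 3 min heating across 48°C-58°C, aliquots were pooled, adjusted to 0.5% NP-40 at 4°C and centrifuged at 21,000xg for 90 min. The supernatant was measured by TMTpro 16plex LC-MS/MS with channel sums equalised.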

Amino acid sequences for entries named in this document (tags omitted). A change or cut given only in a name is not applied to a line headed by its entry.
UniProt P51948: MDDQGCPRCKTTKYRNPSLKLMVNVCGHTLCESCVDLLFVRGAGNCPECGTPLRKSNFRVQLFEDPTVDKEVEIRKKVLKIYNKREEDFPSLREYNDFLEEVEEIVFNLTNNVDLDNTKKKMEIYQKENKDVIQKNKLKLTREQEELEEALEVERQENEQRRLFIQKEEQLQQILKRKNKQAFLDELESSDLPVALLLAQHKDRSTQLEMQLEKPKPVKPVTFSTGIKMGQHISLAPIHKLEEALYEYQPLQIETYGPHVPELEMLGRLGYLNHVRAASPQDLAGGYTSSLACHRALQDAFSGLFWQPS
UniProt P46013: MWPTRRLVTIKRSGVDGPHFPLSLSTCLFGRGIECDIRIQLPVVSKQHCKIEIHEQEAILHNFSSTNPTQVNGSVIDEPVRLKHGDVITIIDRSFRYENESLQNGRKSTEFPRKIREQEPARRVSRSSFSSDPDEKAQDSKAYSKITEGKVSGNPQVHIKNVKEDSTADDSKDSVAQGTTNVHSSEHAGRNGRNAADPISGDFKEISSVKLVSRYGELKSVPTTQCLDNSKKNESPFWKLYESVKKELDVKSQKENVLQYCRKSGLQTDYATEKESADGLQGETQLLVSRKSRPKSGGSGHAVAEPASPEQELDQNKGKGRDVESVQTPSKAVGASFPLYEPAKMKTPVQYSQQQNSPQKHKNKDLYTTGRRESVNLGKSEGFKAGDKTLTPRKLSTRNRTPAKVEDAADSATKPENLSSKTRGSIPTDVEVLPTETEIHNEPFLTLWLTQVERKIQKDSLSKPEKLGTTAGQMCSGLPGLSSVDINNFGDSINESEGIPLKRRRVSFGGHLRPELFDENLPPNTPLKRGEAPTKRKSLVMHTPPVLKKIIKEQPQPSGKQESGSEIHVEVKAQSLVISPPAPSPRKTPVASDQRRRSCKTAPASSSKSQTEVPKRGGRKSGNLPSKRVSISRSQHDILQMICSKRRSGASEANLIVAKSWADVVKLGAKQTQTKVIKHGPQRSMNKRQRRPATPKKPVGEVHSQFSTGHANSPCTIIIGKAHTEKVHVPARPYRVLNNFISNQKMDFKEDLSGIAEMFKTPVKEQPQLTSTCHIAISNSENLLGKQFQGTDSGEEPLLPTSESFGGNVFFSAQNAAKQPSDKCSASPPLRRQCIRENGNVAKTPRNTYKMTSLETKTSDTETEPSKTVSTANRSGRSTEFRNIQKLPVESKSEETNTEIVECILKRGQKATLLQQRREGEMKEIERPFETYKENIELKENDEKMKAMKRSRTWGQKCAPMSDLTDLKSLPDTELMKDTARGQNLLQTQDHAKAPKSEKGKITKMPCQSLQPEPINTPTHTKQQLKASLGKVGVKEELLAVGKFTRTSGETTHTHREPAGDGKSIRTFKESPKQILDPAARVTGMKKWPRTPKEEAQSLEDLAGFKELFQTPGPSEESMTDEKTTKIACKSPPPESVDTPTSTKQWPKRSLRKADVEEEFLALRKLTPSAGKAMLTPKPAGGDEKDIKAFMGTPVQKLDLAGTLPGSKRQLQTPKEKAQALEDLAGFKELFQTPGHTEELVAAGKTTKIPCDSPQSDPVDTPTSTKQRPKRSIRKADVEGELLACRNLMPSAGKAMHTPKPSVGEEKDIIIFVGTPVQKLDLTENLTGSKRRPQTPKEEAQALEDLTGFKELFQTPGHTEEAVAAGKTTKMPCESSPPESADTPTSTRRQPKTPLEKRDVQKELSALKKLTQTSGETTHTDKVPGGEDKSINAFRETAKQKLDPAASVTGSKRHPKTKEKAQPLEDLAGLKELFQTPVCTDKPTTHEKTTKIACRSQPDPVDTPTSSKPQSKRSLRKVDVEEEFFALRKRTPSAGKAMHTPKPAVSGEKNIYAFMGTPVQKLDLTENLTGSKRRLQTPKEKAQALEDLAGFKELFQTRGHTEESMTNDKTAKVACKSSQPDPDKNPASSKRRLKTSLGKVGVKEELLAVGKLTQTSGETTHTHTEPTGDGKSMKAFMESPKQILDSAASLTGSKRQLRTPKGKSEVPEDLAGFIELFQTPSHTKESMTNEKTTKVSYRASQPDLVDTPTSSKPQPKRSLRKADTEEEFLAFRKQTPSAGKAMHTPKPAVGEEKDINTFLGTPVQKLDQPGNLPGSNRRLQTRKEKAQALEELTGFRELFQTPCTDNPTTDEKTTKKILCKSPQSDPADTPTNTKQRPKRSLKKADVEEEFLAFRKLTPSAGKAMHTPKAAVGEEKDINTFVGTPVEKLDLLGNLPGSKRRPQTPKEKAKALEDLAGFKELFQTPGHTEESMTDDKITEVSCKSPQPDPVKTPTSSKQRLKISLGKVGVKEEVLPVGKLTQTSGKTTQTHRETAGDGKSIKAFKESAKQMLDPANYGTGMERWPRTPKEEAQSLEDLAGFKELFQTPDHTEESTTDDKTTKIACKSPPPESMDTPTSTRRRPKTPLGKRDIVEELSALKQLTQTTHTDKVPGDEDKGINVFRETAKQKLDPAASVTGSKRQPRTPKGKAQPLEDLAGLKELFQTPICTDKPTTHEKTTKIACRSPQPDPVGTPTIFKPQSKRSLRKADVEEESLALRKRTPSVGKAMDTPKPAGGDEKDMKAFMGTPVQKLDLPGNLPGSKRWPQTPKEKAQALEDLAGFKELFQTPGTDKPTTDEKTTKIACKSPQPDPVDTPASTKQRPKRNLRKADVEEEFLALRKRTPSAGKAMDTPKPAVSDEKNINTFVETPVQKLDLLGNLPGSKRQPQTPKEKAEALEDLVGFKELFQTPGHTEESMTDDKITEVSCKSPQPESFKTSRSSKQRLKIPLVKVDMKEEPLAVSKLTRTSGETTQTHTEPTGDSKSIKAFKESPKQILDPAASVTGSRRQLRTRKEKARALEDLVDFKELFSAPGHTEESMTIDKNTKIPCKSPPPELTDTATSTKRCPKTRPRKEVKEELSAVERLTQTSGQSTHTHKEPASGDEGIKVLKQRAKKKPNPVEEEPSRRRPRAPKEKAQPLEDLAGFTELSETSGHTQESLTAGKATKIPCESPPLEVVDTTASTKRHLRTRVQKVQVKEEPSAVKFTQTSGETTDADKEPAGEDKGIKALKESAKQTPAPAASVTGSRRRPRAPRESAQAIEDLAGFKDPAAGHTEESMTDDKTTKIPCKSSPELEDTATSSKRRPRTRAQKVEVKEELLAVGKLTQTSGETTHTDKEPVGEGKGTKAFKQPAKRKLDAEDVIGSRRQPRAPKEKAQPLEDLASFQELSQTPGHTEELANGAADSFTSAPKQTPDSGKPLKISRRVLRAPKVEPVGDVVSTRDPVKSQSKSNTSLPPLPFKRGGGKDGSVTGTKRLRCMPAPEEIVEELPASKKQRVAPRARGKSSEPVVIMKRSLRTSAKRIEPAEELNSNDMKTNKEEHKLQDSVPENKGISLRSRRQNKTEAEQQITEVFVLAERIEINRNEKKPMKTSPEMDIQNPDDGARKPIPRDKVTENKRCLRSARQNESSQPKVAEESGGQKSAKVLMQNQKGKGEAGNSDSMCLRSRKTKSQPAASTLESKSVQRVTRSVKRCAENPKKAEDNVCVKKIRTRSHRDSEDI
UniProt Q99550: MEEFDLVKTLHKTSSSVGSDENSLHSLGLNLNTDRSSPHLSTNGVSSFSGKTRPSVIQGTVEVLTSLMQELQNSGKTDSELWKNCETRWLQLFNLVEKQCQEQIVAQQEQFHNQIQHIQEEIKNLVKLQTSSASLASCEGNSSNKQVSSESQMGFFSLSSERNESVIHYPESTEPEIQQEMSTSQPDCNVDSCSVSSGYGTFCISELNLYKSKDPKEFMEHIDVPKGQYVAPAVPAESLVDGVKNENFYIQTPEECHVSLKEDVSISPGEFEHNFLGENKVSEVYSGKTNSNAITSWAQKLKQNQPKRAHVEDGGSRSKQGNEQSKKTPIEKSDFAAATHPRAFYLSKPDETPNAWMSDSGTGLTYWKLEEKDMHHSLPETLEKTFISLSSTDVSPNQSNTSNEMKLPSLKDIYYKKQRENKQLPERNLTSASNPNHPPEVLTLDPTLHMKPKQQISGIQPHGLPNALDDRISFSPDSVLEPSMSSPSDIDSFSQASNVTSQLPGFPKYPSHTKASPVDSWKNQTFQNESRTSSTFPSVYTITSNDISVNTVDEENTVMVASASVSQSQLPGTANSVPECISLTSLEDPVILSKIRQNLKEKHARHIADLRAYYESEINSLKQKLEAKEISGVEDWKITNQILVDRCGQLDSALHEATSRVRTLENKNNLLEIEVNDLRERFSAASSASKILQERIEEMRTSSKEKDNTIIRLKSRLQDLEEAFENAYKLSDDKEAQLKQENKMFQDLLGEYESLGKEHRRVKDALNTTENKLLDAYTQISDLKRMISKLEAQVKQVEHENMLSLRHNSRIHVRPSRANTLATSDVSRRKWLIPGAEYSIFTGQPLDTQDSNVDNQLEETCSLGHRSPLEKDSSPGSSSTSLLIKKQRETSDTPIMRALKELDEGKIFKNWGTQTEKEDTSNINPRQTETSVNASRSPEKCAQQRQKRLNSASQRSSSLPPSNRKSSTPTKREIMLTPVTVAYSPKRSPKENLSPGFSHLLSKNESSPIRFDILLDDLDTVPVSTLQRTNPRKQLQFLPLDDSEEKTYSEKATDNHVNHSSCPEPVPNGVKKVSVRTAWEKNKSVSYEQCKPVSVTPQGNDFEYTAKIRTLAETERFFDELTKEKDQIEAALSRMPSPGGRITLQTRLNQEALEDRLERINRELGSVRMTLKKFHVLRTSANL
UniProt Q9BU76: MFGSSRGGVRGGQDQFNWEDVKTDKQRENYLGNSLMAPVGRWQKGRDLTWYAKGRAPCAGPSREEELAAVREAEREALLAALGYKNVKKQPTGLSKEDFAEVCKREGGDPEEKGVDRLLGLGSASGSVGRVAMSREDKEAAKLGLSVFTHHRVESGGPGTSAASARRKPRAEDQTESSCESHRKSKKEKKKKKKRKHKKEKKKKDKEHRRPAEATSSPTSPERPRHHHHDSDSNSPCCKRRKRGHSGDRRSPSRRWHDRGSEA
UniProt Q9UQ53: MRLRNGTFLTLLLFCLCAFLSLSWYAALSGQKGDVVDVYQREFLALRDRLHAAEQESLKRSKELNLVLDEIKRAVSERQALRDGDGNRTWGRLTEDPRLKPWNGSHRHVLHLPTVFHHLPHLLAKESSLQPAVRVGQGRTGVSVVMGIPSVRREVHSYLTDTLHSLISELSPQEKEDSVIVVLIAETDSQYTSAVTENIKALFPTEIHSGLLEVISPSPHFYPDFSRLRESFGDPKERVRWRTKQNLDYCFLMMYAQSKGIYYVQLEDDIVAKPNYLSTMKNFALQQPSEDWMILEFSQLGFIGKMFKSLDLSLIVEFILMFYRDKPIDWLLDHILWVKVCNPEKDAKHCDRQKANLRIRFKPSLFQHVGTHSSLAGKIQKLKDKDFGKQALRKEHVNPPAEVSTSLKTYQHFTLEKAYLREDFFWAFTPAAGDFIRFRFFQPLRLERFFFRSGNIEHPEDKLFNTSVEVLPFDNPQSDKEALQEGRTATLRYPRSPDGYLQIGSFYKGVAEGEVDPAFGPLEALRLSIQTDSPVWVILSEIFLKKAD
UniProt Q99735: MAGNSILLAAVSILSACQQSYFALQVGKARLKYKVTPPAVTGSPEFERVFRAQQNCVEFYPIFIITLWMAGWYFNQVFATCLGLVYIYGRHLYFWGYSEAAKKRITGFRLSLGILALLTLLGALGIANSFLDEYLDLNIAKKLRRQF
UniProt Q5XKP0: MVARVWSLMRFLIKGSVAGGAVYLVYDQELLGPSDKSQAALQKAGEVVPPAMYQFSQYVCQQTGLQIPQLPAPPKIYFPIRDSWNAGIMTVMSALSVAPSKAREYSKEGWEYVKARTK
UniProt Q9HBH9: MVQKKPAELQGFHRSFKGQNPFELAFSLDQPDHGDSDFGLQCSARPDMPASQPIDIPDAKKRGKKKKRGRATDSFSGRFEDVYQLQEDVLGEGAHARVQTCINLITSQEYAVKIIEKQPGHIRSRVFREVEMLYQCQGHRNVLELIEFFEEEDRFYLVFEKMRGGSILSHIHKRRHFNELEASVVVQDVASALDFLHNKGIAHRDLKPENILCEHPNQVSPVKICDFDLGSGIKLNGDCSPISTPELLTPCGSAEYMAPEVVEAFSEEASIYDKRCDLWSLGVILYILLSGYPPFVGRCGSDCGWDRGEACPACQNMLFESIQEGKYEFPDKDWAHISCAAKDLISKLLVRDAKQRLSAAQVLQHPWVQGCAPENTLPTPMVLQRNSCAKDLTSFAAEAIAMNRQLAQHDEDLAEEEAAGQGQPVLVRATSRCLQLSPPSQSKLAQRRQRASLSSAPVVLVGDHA
UniProt Q9H8S9: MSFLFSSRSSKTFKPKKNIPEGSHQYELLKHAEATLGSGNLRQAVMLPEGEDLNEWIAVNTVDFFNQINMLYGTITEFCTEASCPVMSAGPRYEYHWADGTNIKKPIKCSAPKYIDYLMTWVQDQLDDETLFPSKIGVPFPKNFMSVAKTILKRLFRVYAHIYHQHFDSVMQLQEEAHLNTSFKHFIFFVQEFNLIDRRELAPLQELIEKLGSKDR
UniProt O96033: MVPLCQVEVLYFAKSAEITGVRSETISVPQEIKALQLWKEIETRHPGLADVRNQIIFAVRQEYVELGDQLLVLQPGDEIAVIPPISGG

[2] = compound: O=C(CCCCCCC(=O)Nc1ccccc1)NO [vorinostat]
Procedure, shortened: as §1

[3] = compound: O=C(O)c1ccc2c(c1)nc(Nc1cccc(Cl)c1)c1ccncc12 [silmitasertib]
Procedure, shortened: as §1

[4] = compound: O=C1NC(=O)C(c2cnc3ccccn23)=C1c1cn2c3c(cc(F)cc13)CN(C(=O)N1CCCCC1)CC2
Procedure, shortened: as §1

[5] = compound: c1cn2cc(-c3ccc4cn[nH]c4c3)nc(Nc3ccc(N4CCOCC4)cc3)c2n1 [entospletinib]
Procedure, shortened: as §1

Row | Target | log2 fold change [1] | log2 fold change [2] | log2 fold change [3] | log2 fold change [4] | log2 fold change [5]
1 | MORF4L1 isoform 2 (UniProt Q9UBU8) | inactive: 0.013 | inactive: 0.058 | inactive: -0.002 | inactive: 0.015 | inactive: 0.018
2 | MPST isoform 2 (UniProt P25325) | inactive: 0.034 | inactive: -0.058 | inactive: 0.005 | inactive: -0.021 | inactive: 0.008
3 | MLH1 (UniProt P40692) | inactive: 0.04 | active: -0.312 | inactive: 0.025 | inactive: 0.005 | inactive: 0.022
4 | MGRN1 isoform 2 (UniProt O60291) | inactive: -0.063 | inactive: 0.178 | inactive: 0.005 | inactive: 0.096 | inactive: -0.006
5 | MNAT1 (UniProt P51948) | inactive: 0.029 | inactive: 0.088 | inactive: -0.02 | inactive: 0.024 | inactive: 0.018
6 | MKI67 (UniProt P46013) | inactive: -0.051 | inactive: -0.005 | inactive: -0.004 | inactive: 0 | inactive: -0.016
7 | MOB4 (UniProt Q9Y3A3) | inactive: -0.028 | inactive: -0.011 | inactive: -0.015 | inactive: -0.006 | inactive: 0.059
8 | MGST1 (UniProt P10620) | inactive: -0.013 | inactive: 0.037 | inactive: -0.013 | inactive: 0.031 | inactive: -0.01
9 | MMS22L (UniProt Q6ZRQ5) | inactive: 0.022 | active: -0.508 | inactive: 0.016 | inactive: 0.138 | inactive: 0.069
10 | MPHOSPH9 (UniProt Q99550) | inactive: -0.185 | inactive: -0.236 | inactive: -0.145 | inactive: -0.043 | inactive: -0.045
11 | MPP6 (UniProt Q9NZW5) | inactive: -0.017 | inactive: 0.059 | inactive: 0.019 | inactive: 0.023 | inactive: -0.013
12 | MNX1 (UniProt P50219) | inactive: -0.063 | inactive: -0.102 | inactive: 0.03 | inactive: -0.01 | inactive: -0.215
13 | MRM3 (UniProt Q9HC36) | inactive: -0.073 | inactive: 0.058 | inactive: -0.025 | inactive: 0.028 | inactive: -0.027
14 | MMS19 isoform 8 (UniProt Q96T76) | inactive: 0.057 | active: -0.372 | inactive: 0.054 | inactive: 0.029 | inactive: 0.024
15 | MMTAG2 (UniProt Q9BU76) | inactive: 0.051 | inactive: -0.185 | inactive: 0.007 | inactive: 0.048 | inactive: 0
16 | MICALL2 (UniProt Q8IY33) | inactive: 0.013 | inactive: -0.156 | inactive: -0.006 | inactive: 0 | inactive: -0.005
17 | MRPL17 (UniProt Q9NRX2) | inactive: -0.005 | inactive: -0.113 | inactive: 0.079 | inactive: -0.027 | inactive: 0.007
18 | MIOS (UniProt Q9NXC5) | inactive: -0.013 | inactive: -0.018 | inactive: 0.012 | inactive: -0.009 | inactive: -0.011
19 | MOB1B isoform 2 (UniProt Q7L9L4) | inactive: 0.014 | inactive: 0.097 | inactive: -0.027 | inactive: -0.033 | inactive: 0.009

Quoted from the listing:
MKI67 (UniProt P46013) | log2 fold change [4]: inactive: 0
MPHOSPH9 (UniProt Q99550) | log2 fold change [3]: inactive: -0.145
MOB1B isoform 2 (UniProt Q7L9L4) | log2 fold change [1]: inactive: 0.014

Only log2 fold change [3] (2 entries from above):
Row | Target | log2 fold change [3]
6 | MKI67 (UniProt P46013) | inactive: -0.004
8 | MGST1 (UniProt P10620) | inactive: -0.013

Carrying on.

Row | Target | log2 fold change [1] | log2 fold change [2] | log2 fold change [3] | log2 fold change [4] | log2 fold change [5]
20 | MGAT4B isoform 3 (UniProt Q9UQ53) | inactive: 0.027 | inactive: 0.097 | inactive: 0.013 | inactive: 0.097 | inactive: 0.073
21 | MON2 isoform 5 (UniProt Q7Z3U7) | inactive: 0.021 | active: -0.525 | inactive: 0.021 | inactive: 0 | inactive: 0.005
22 | MRPL23 (UniProt Q16540) | inactive: -0.036 | inactive: 0.041 | inactive: 0.017 | inactive: 0.06 | inactive: -0.045
23 | MPP5 (UniProt Q8N3R9) | inactive: 0.015 | inactive: 0.016 | inactive: -0.1 | inactive: 0 | inactive: 0.013
24 | MGST2 (UniProt Q99735) | inactive: 0.034 | inactive: 0.117 | inactive: 0.083 | inactive: 0.003 | inactive: -0.05
25 | MICOS13 (UniProt Q5XKP0) | inactive: -0.063 | inactive: 0.083 | inactive: 0 | inactive: -0.004 | inactive: -0.009
26 | MIF (UniProt P14174) | inactive: 0.048 | inactive: -0.055 | inactive: 0.065 | inactive: -0.009 | inactive: 0.064
27 | MIER1 isoform 12 (UniProt Q8N108) | inactive: 0.017 | inactive: 0.049 | inactive: -0.028 | inactive: -0.005 | inactive: 0.002
28 | MRPL19 (UniProt P49406) | inactive: 0 | active: -0.311 | inactive: 0.012 | inactive: 0.027 | inactive: -0.054
29 | MGAT2 (UniProt Q10469) | inactive: -0.075 | inactive: 0.045 | inactive: 0.012 | inactive: -0.004 | inactive: 0.006
30 | MLXIPL (UniProt Q9NP71) |  | inactive: -0.066 | inactive: 0.011 | inactive: 0.051 | 
31 | MINDY2 (UniProt Q8NBR6) |  |  |  | inactive: 0.015 | inactive: -0.018
32 | MME (UniProt P08473) |  | inactive: 0.096 | inactive: -0.033 | inactive: -0.038 | 
33 | MKNK2 (UniProt Q9HBH9) | inactive: -0.176 | inactive: -0.094 | inactive: 0.201 |  | inactive: -0.291
34 | MRPL13 (UniProt Q9BYD1) | inactive: -0.027 | inactive: 0.149 | inactive: 0.018 | inactive: 0.004 | inactive: 0.016
35 | MOB1A (UniProt Q9H8S9) | inactive: 0.116 |  |  |  | inactive: 0.008
36 | MINPP1 (UniProt Q9UNW1) | inactive: -0.034 | inactive: 0.147 | inactive: 0.022 | inactive: -0.041 | inactive: 0.017
37 | MOCS2 (UniProt O96033) |  |  |  | inactive: 0.033 | 

Reference: the supplement of paper PMC10849652
